From PubChem BioAssay AID1347076 (National Center for Advancing Translational Sciences (NCATS), 2019)
The campaign covered roughly 400,000 compounds. About 13,000 (3.2%) were called active. The inconclusive results got no clear call from the source; some entries with a clear call stand among them for comparison. Calls follow the shape of the dose curve; as a rule, active = well fitted cell-killing curve with a large enough effect; inconclusive = small, poorly fitted or top-dose-only effect, or effect the other way; inactive = flat fitted curve, though single readings scatter. Potencies beside an inconclusive call are fits to weak or partial responses and may not hold up.

Test: qHTS assay for MDR1-selective chemotherapeutics: Primary screen using the drug-selected MDR subline cells KB-V1; also: nearly all actives have a fitted effect of over 60% in size
Conditions: KB-V1 MDR cells viability, CellTiter-Glo, 72 h; activity change, negative = cytotoxicity: at 46.1 µM (top of the series)
Outline: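 KB-V1 MDR subline cells in DMEM (phenol-red free, 10% FBS) exposed to compounds in qHTS concentration series for 72 h at 37 degrees C. Viability read by CellTiter-Glo luminescence; concentration-effect curves fitted after normalization and correction.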
% is scaled to controls: 0 for no effect and ±100 for the full control effect; potency is read from the fitted curve at half-maximal effect.

Which Potency does the source give for `Cc1ccc(NC(=O)COC(=O)C2C3CC4OC(=O)C2C4C3)cc1` (stereo unspecified) here?
The Potency was inconclusive: 0.164 µM [rising, full curve, poor fit].

Which Potency does the source give for `Cc1cc(Cl)ccc1OCCCC(=O)NNC(=O)c1ccccc1O` here?
The Potency was “inactive”.

With `Cc1cc(C(=O)NCCc2ccc(Cl)cc2)c2ccccc2n1` as the compound, how does the Potency read?
Its Potency is inconclusive: 9.2 µM [cytotoxic, partial curve].

With `O=c1c2[nH]c3ccc(Cl)cc3c2ncn1CCN1CCCCC1` as the compound, how does the Potency read?
The Potency was inconclusive: 7.31 µM [cytotoxic, partial curve].

For `CCOc1ccc2nc(NC(=O)c3nc(SC(C)C)ncc3Cl)sc2c1`, which Potency is on record?
Its Potency is inconclusive: 29.1 µM [cytotoxic, single point].

Which Potency does the source give for `CCC(=O)Nc1nc2ccccc2n1CCN(CC)CC` here?
Its Potency is “inactive”.

With `CNS(=O)(=O)c1cccc(C(=O)OCC(=O)NC2CCCC(C)C2C)c1` (stereo unspecified) as the compound, how does the Potency read?
The Potency was inconclusive: 29.1 µM [rising, single point].

For `CC1=NN(c2ccccc2)C(=O)C1C=Nc1ccc(N(C)C)cc1` (stereo unspecified), which Potency is on record?
The Potency was inconclusive: 23.1 µM [cytotoxic, single point].

For `O=C(CN1CCCC1)N1CCCC(c2ccc(F)cc2)c2ccc(F)cc21` (stereo unspecified), which Potency is on record?
The Potency was inconclusive: 10.3 µM [cytotoxic, partial curve].

With `O=C(NCC1CCCO1)c1ccc(N2C(=O)C3CCCCC3C2=O)cc1` (stereo unspecified) as the compound, how does the Potency read?
Its Potency is “inactive”.

With `O=C(/C=C/c1cccc(F)c1)OCC(=O)N1CCc2ccccc21` as the compound, how does the activity change, negative = cytotoxicity read?
Its activity change, negative = cytotoxicity is inconclusive: 13.8%.

For `CCOC(=O)C1(Cc2ccccc2C(F)(F)F)CCN(C2CCSC2)CC1` (stereo unspecified), which Potency is on record?
Its Potency is inconclusive: 8.2 µM [cytotoxic, partial curve].

With `S=C(NCc1ccc(Cl)cc1)NC1CCN(Cc2ccccc2)CC1` as the compound, how does the Potency read?
The Potency was active: 16.4 µM.

With `CCOc1ccc(S(=O)(=O)N2CCN(C)CC2)cc1NC(=O)c1ccccc1F` as the compound, how does the Potency read?
The Potency was inconclusive: 3.66 µM [cytotoxic, full curve].

Which Potency does the source give for `CC(=O)Nc1cccc([N+](=O)[O-])c1` here?
The Potency was inconclusive: 29.1 µM [rising, partial curve, poor fit].

For `COc1ccc2nc(SCCN(C)C)[nH]c2c1`, which Potency is on record?
The Potency was inconclusive: 29.1 µM [rising, single point].

For `Cc1cccc(C)c1NC(=O)CSc1nc(-c2cccs2)cc(C(F)(F)F)n1`, which Potency is on record?
Its Potency is inconclusive: 5.17 µM [cytotoxic, partial curve].

For `c1ccc(Cc2cc[n+](Cc3ccccn3)cc2)cc1`, which Potency is on record?
The Potency was inconclusive: 13 µM [rising, partial curve, poor fit].

For `O=c1oc(-c2ccc(O)c(O)c2)cc2cccc(O)c12`, which Potency is on record?
The Potency was “inactive”.

With `CS(=O)(=O)N(CC(N)=O)c1cccc(Br)c1` as the compound, how does the Potency read?
The Potency was inconclusive: 23.1 µM [rising, single point].

With `Cc1ccc(C(=O)OCC(=O)N(CCc2ccccc2)Cc2ccccc2)cc1S(=O)(=O)N1CCOCC1` as the compound, how does the Potency read?
The Potency was inconclusive: 18.4 µM [cytotoxic, single point].

Which Potency does the source give for `Cc1cccc(NC(=O)c2ccc(S(=O)(=O)N3CCCCC3)cc2)n1` here?
Its Potency is inconclusive: 29.1 µM [cytotoxic, single point].

With `CC(C)NC(=O)CCSc1nc(-c2ccc3c(c2)OCO3)cc(C(F)(F)F)n1` as the compound, how does the Potency read?
Its Potency is inconclusive: 18.4 µM [cytotoxic, single point].

With `CCOC(=O)C1=C(CSc2nc3c(cc2C#N)CN(C)CC3)OC(N)=C(C#N)C1c1ccccc1` (stereo unspecified) as the compound, how does the Potency read?
Its Potency is “inactive”.

Which Potency does the source give for `CCOC(=O)c1c(C)[nH]c(N=Nc2cccc(C)c2)c1C` here?
Its Potency is inconclusive: 18.4 µM [cytotoxic, partial curve].

Which Potency does the source give for `COCCN(C(=O)COC(=O)CCCc1c[nH]c2ccccc12)c1c(N)n(Cc2ccccc2)c(=O)[nH]c1=O` here?
Its Potency is inconclusive: 29.1 µM [rising, single point].

For `COC(=O)c1ccc2c(c1)sc(=NC(=O)CCS(=O)(=O)c1ccccc1)n2C`, which Potency is on record?
Its Potency is inconclusive: 29.1 µM [cytotoxic, single point].

For `CCN1CCN(S(=O)(=O)c2ccc(S(=O)(=O)N(CC)Cc3ccccc3)cc2)CC1`, which Potency is on record?
The Potency was inconclusive: 6.51 µM [cytotoxic, partial curve].

Which Potency does the source give for `CCn1c(C)c(C(C)=O)c(N2CCN(c3ccccn3)CC2)nc1=S` here?
Its Potency is inconclusive: 13 µM [cytotoxic, partial curve].

For `O=C(Nc1ccc(N2CCN(C(=O)c3ccco3)CC2)c(Cl)c1)c1cccs1`, which Potency is on record?
Its Potency is active: 23.1 µM.

Which Potency does the source give for `CCSc1nnc(NC(=O)CN2C(=O)NC3(CCCC3)C2=O)s1` here?
Its Potency is inconclusive: 20.6 µM [rising, single point].

Which Potency does the source give for `O=C(Nc1nnc(-c2cccs2)o1)C1CC1` here?
The Potency was “inactive”.

With `CCOC(=O)c1cnc(-n2nc(C)cc2C)nc1NCc1ccc2c(c1)OCO2` as the compound, how does the Potency read?
Its Potency is inconclusive: 0.517 µM [cytotoxic, full curve].

Which Potency does the source give for `COc1ccc(CCN(Cc2nc3ccccc3c(=O)[nH]2)C(=O)c2ccco2)cc1` here?
The Potency was active: 20.6 µM.

Which Potency does the source give for `C[C@H](CO)N1C[C@H](C)[C@H](CN(C)S(=O)(=O)c2cccs2)Oc2ccc(NC(=O)Nc3ccc4c(c3)OCO4)cc2CC1=O` here?
The Potency was inconclusive: 18.4 µM [rising, partial curve, poor fit].

With `CC(C)[C@H](NC(=O)c1ccco1)C(=O)N(C)Cc1c(F)cccc1Cl` as the compound, how does the Potency read?
The Potency was inconclusive: 23.1 µM [cytotoxic, partial curve, poor fit].

For `CC1(C(=O)N/N=C/c2ccc3c(c2)OCO3)CC1(Br)Br` (stereo unspecified), which Potency is on record?
The Potency was inconclusive: 29.1 µM [rising, single point].

For `COc1ccc(Cc2nnc(NC(=O)c3cccc(C)c3)s2)cc1`, which Potency is on record?
The Potency was “inactive”.

With `Fc1ccc(Nc2nc(NCc3ccccc3)nc3ccsc23)cc1` as the compound, how does the Potency read?
Its Potency is inconclusive: 4.11 µM [cytotoxic, full curve, poor fit].

With `COc1ccc(NC(=S)N(CCCN2CCOCC2)C(C)c2cc3cccc(OC)c3o2)cc1` (stereo unspecified) as the compound, how does the Potency read?
The Potency was “inactive”.

For `CC(C)(C)c1ccc(S(=O)(=O)Nc2ccc(Cc3ccncc3)cc2)cc1`, which Potency is on record?
The Potency was inconclusive: 2.59 µM [cytotoxic, full curve, poor fit].

Which Potency does the source give for `C=C(C)CNC(=S)NNC(=O)c1ccc(Br)cc1` here?
The Potency was inconclusive: 29.1 µM [rising, single point].

With `CCCCCn1c(CN2CCN(c3cccc(Cl)c3)CC2)nc2c1c(=O)n(C)c(=O)n2C` as the compound, how does the Potency read?
Its Potency is inconclusive: 14.6 µM [cytotoxic, single point].

Which Potency does the source give for `CN(C(=O)c1ccc(NC(=O)Cc2ccc(NC(=O)C3CCCN(C(=O)C4CCCCC4)C3)cc2)cc1)C1CCCC1` (stereo unspecified) here?
The Potency was inconclusive: 1.46 µM [rising, partial curve].

For `Cc1ccc(C(=O)Nc2cccc([N+](=O)[O-])c2)cc1S(=O)(=O)Nc1cccc(C(=O)O)c1`, which Potency is on record?
The Potency was “inactive”.

With `COc1ccc(C2c3c(-c4ccccc4)n[nH]c3C(=O)N2c2ccc(C(=O)O)cc2)c(OC)c1` (stereo unspecified) as the compound, how does the Potency read?
The Potency was inconclusive: 32.6 µM [rising, single point].

For `CCN(CC)CCCNC(=O)c1cc2c(Cl)nc3ccccc3c2s1`, which Potency is on record?
Its Potency is inconclusive: 25.9 µM [cytotoxic, partial curve, poor fit].

Which Potency does the source give for `COc1ccc(-n2nc(C(=O)NCCc3ccc(Cl)cc3)c3c4ccccc4n(C)c3c2=O)cc1` here?
The Potency was “inactive”.

With `O=c1cc(CN2CCN(c3ccc(F)cc3)CC2)c2cc3c(cc2o1)CCCC3` as the compound, how does the Potency read?
Its Potency is inconclusive: 23.1 µM [cytotoxic, single point].

With `CCN1C(=O)[C@H]2[C@@H](c3ccc(C)cc3)N[C@]3(CCCN(Cc4ccc(Cl)cc4)C3=O)[C@H]2C1=O` as the compound, how does the Potency read?
The Potency was “inactive”.

Which Potency does the source give for `CC(=O)Nc1ccc2c(c1)C(=Nc1ccc(C)cc1)c1ccccc1-2` here?
The Potency was inconclusive: 4.11 µM [rising, partial curve, poor fit].

For `N#C/C(=C\c1ccccc1OCC(=O)O)c1nc2ccccc2[nH]1`, which Potency is on record?
Its Potency is “inactive”.

Which Potency does the source give for `COC(=O)c1ccc2c(c1)sc(=NC(=O)c1ccc(S(=O)(=O)N3CCCCC3)cc1)n2C` here?
The Potency was inconclusive: 4.11 µM [rising, full curve, poor fit].

Which Potency does the source give for `C#CCOn1c(-n2nc(C)cc2C)nc2ccccc2c1=O` here?
Its Potency is inconclusive: 18.4 µM [cytotoxic, single point].

Which Potency does the source give for `Cc1ccc(-c2cnc(C3CC3)o2)cc1S(=O)(=O)Nc1cccc(C#N)c1` here?
Its Potency is inconclusive: 25.9 µM [cytotoxic, single point].

Which Potency does the source give for `CCOC(=O)c1c(NC(=S)NNS(=O)(=O)c2ccc(Br)cc2)sc2c1CCCCC2` here?
The Potency was inconclusive: 29.1 µM [cytotoxic, single point].

With `C=CCn1c(SCC(=O)Nc2cccnc2Cl)nnc1-c1ccc(C(C)(C)C)cc1` as the compound, how does the Potency read?
The Potency was inconclusive: 14.6 µM [cytotoxic, single point].

For `Cc1cccc(CN2CCSc3sccc3C2=O)c1`, which Potency is on record?
The Potency was inconclusive: 18.4 µM [cytotoxic, single point].

With `Cc1cc(C(=O)CN2C(=O)c3ccccc3S2(=O)=O)c(C)n1C(C)C` as the compound, how does the Potency read?
The Potency was inconclusive: 29.1 µM [cytotoxic, single point].

For `COc1ccc(NC(=O)CN2CCC(NC(=O)c3ccc(OC)cc3)CC2)cc1`, which Potency is on record?
Its Potency is “inactive”.

With `O=C(/C=C/NCc1cccnc1)c1ccc(-c2ccccc2)cc1` as the compound, how does the Potency read?
The Potency was “inactive”.

Which Potency does the source give for `Cc1cc(NC(=O)CCS(=O)(=O)c2ccc(F)cc2)no1` here?
The Potency was inconclusive: 10.3 µM [rising, partial curve].

Which Potency does the source give for `N#Cc1ccc(-c2ccc(OCC(=O)NCCc3ccccc3)cc2)cc1` here?
The Potency was active: 5.17 µM.

With `Cc1ccc(-n2cc(CNCCCn3cccn3)c(-c3cccc(C)c3)n2)cc1` as the compound, how does the Potency read?
Its Potency is inconclusive: 18.4 µM [cytotoxic, partial curve, poor fit].

For `CCn1c(COc2ccc3c(c2)CCCC3)nnc1SCC(=O)Nc1ccc(C(=O)OC)cc1`, which Potency is on record?
The Potency was inconclusive: 10.3 µM [cytotoxic, partial curve].

Which Potency does the source give for `CC(NC(=O)c1ccccc1NC(=O)CN1CCN(c2ccccc2O)CC1)c1ccccc1` (stereo unspecified) here?
Its Potency is inconclusive: 20.6 µM [cytotoxic, partial curve, poor fit].
